Results are given in words; binding and its absence hold for the method and conditions named. Some binding calls cover weakened binding; strength is not graded here.
Target: wild-type HPV52L1 expressed in 293FT cells (human papillomavirus type 52 (HPV52)) (UniProt Q05138)
Assay: negative-staining TEM; L1 (and L2, pN31-EGFP) plasmids transfected into 293FT cells; particles purified by Capto Core 700 and viewed by TEM

Chains of the proteins cited; added tags and fusions are not shown.
UniProt Q05138: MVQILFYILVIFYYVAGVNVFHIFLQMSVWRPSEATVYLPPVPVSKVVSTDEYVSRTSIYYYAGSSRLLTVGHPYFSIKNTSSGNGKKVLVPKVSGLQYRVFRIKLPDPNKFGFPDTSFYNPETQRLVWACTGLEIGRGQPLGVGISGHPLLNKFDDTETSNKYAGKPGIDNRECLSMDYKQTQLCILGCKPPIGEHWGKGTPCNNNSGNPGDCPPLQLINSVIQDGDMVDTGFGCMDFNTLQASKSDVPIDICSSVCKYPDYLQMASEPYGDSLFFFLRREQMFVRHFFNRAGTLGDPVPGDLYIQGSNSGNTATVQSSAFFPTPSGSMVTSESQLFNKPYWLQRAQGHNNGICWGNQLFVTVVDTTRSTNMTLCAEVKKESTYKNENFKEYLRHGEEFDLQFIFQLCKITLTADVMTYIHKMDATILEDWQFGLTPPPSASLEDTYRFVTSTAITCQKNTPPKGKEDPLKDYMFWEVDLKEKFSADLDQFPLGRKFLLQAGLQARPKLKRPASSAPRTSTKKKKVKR

With “wild-type HPV52L1 expressed in 293FT cells (from UniProt Q05138 1-529)” the binding was “binds”.

From publication PMC7275066
